# Results published in the supplement of paper PMC10032668.
# The other results are listed elsewhere or left out. Only hits are listed; about a third recur on repeated control peptides.
# Assays:
# Assay in all cases: PRISMA enrichment of interactor (LFQ) in peptide spot vs all other peptide spots (log2 fold change); higher = stronger / more specific binding of the interactor to the peptide
# ALDH4A1, P30038 = biological target: ALDH4A1, P30038
# Method: (§1)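 PRISMA: 15-aa overlapping tiles (offset 8 aa) of 60 microproteins, plus SOS1/GLUT1 control peptides, were spot-synthesized on cellulose membranes in triplicate. Membranes were incubated with benzonase-treated HEK293T lysate, and bound proteins were identified by LC-MS/MS with LFQ. Enrichment is the log2 fold change of each protein in one spot versus all other spots. Only interactors passing the significance cutoff are listed.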
# ARF1, P84077 = biological target: ARF1, P84077
# Method: as §1
# ARGLU1, Q9NWB6 = biological target: ARGLU1, Q9NWB6
# Method: as §1
# ATRN, O75882 = biological target: ATRN, O75882
# Method: as §1
# BANF1, O75531 = biological target: BANF1, O75531
# Method: as §1
# BCOR, Q6W2J9 = biological target: BCOR, Q6W2J9
# Method: as §1
# BOLA2, Q9H3K6 = biological target: BOLA2, Q9H3K6
# Method: as §1
# CALD1, Q05682 = biological target: CALD1, Q05682
# Method: as §1
# CCAR2, Q8N163 = biological target: CCAR2, Q8N163
# Method: as §1
# CDCA7L, Q96GN5 = biological target: CDCA7L, Q96GN5
# Method: as §1
# CEBPZ, Q03701 = biological target: CEBPZ, Q03701
# Method: as §1
# CSDE1, O75534 = biological target: CSDE1, O75534
# Method: as §1
# DIS3, Q9Y2L1 = biological target: DIS3, Q9Y2L1
# Method: as §1
# DYNLRB1, Q9NP97 = biological target: DYNLRB1, Q9NP97
# Method: as §1
# ENAH, Q8N8S7 = biological target: ENAH, Q8N8S7
# Method: as §1
# EXOC3, O60645 = biological target: EXOC3, O60645
# Method: as §1
# FAM133B, Q5BKY9 = biological target: FAM133B, Q5BKY9
# Method: as §1
# GTF2E2, P29084 = biological target: GTF2E2, P29084
# Method: as §1
# HK2, P52789 = biological target: HK2, P52789
# Method: as §1
# IPO9, Q96P70 = biological target: IPO9, Q96P70
# Method: as §1
# KNOP1, Q1ED39 = biological target: KNOP1, Q1ED39
# Method: as §1
# KTN1, Q86UP2 = biological target: KTN1, Q86UP2
# Method: as §1
# MAIP1, Q8WWC4 = biological target: MAIP1, Q8WWC4
# Method: as §1
# MRPL22, Q9NWU5 = biological target: MRPL22, Q9NWU5
# Method: as §1
# MRPS6, P82932 = biological target: MRPS6, P82932
# Method: as §1
# MTOR, P42345 = biological target: MTOR, P42345
# Method: as §1
# MTREX, P42285 = biological target: MTREX, P42285
# Method: as §1
# NUP188, Q5SRE5 = biological target: NUP188, Q5SRE5
# Method: as §1
# NUP58, Q9BVL2 = biological target: NUP58, Q9BVL2
# Method: as §1
# NUP93, Q8N1F7 = biological target: NUP93, Q8N1F7
# Method: as §1
# ORC6, Q9Y5N6 = biological target: ORC6, Q9Y5N6
# Method: as §1
# POLD1, P28340 = biological target: POLD1, P28340
# Method: as §1
# PSMC6, P62333 = biological target: PSMC6, P62333
# Method: as §1
# PTCD3, Q96EY7 = biological target: PTCD3, Q96EY7
# Method: as §1
# RIOK1, Q9BRS2 = biological target: RIOK1, Q9BRS2
# Method: as §1
# SPOUT1, Q5T280 = biological target: SPOUT1, Q5T280
# Method: as §1
# SUCLG2, Q96I99 = biological target: SUCLG2, Q96I99
# Method: as §1
# THOC2, Q8NI27 = biological target: THOC2, Q8NI27
# Method: as §1
# TRIP13, Q15645 = biological target: TRIP13, Q15645
# Method: as §1
# USP34, Q70CQ2 = biological target: USP34, Q70CQ2
# Method: as §1
# XRN1, Q8IZH2 = biological target: XRN1, Q8IZH2
# Method: as §1
# hCG_1984214 = biological target: hCG_1984214
# Method: as §1
binder,measurement,setting,value
GPAWWVVSEVLAEQR [ABR],PRISMA enrichment of interactor (log2),"ALDH4A1, P30038",6.34
same,PRISMA enrichment of interactor (log2),"ARF1, P84077",4.62
same,PRISMA enrichment of interactor (log2),"ARGLU1, Q9NWB6",5.07
same,PRISMA enrichment of interactor (log2),"ATRN, O75882",5.81
same,PRISMA enrichment of interactor (log2),"BANF1, O75531",3.78
same,PRISMA enrichment of interactor (log2),"BCOR, Q6W2J9",6.42
same,PRISMA enrichment of interactor (log2),"BOLA2, Q9H3K6",4.96
same,PRISMA enrichment of interactor (log2),"CALD1, Q05682",4.98
same,PRISMA enrichment of interactor (log2),"CCAR2, Q8N163",4.61
same,PRISMA enrichment of interactor (log2),"CDCA7L, Q96GN5",12.2
same,PRISMA enrichment of interactor (log2),"CEBPZ, Q03701",6.96
same,PRISMA enrichment of interactor (log2),"CSDE1, O75534",4.56
same,PRISMA enrichment of interactor (log2),"DIS3, Q9Y2L1",5.35
same,PRISMA enrichment of interactor (log2),"DYNLRB1, Q9NP97",5.18
same,PRISMA enrichment of interactor (log2),"ENAH, Q8N8S7",7.18
same,PRISMA enrichment of interactor (log2),"EXOC3, O60645",5.38
same,PRISMA enrichment of interactor (log2),"FAM133B, Q5BKY9",4.43
same,PRISMA enrichment of interactor (log2),"GTF2E2, P29084",5.3
same,PRISMA enrichment of interactor (log2),"HK2, P52789",5.19
same,PRISMA enrichment of interactor (log2),"IPO9, Q96P70",4.7
same,PRISMA enrichment of interactor (log2),"KNOP1, Q1ED39",5.62
same,PRISMA enrichment of interactor (log2),"KTN1, Q86UP2",4.69
same,PRISMA enrichment of interactor (log2),"MAIP1, Q8WWC4",4.16
same,PRISMA enrichment of interactor (log2),"MRPL22, Q9NWU5",7.76
same,PRISMA enrichment of interactor (log2),"MRPS6, P82932",5.32
same,PRISMA enrichment of interactor (log2),"MTOR, P42345",7.55
same,PRISMA enrichment of interactor (log2),"MTREX, P42285",4.06
same,PRISMA enrichment of interactor (log2),"NUP188, Q5SRE5",5.15
same,PRISMA enrichment of interactor (log2),"NUP58, Q9BVL2",4.57
same,PRISMA enrichment of interactor (log2),"NUP93, Q8N1F7",4.73
same,PRISMA enrichment of interactor (log2),"ORC6, Q9Y5N6",5.21
same,PRISMA enrichment of interactor (log2),"POLD1, P28340",5.15
same,PRISMA enrichment of interactor (log2),"PSMC6, P62333",4.78
same,PRISMA enrichment of interactor (log2),"PTCD3, Q96EY7",7.92
same,PRISMA enrichment of interactor (log2),"RIOK1, Q9BRS2",11.1
same,PRISMA enrichment of interactor (log2),"SPOUT1, Q5T280",4.83
same,PRISMA enrichment of interactor (log2),"SUCLG2, Q96I99",4.71
same,PRISMA enrichment of interactor (log2),"THOC2, Q8NI27",5.02
same,PRISMA enrichment of interactor (log2),"TRIP13, Q15645",6.3
same,PRISMA enrichment of interactor (log2),"USP34, Q70CQ2",4.54
same,PRISMA enrichment of interactor (log2),"XRN1, Q8IZH2",9.33
same,PRISMA enrichment of interactor (log2),hCG_1984214,5.3

# Reformatted: entries from further up
binder	measurement	setting	value
GPAWWVVSEVLAEQR [ABR]	PRISMA enrichment of interactor (log2)	CSDE1, O75534	4.56
same	PRISMA enrichment of interactor (log2)	DIS3, Q9Y2L1	5.35
same	PRISMA enrichment of interactor (log2)	DYNLRB1, Q9NP97	5.18
same	PRISMA enrichment of interactor (log2)	ENAH, Q8N8S7	7.18
same	PRISMA enrichment of interactor (log2)	EXOC3, O60645	5.38
same	PRISMA enrichment of interactor (log2)	FAM133B, Q5BKY9	4.43
same	PRISMA enrichment of interactor (log2)	GTF2E2, P29084	5.3
same	PRISMA enrichment of interactor (log2)	HK2, P52789	5.19
same	PRISMA enrichment of interactor (log2)	IPO9, Q96P70	4.7
